Here are results for one substance from paper doi:10.1101/681833.

This test deals with T1, malin (co-expressed in cells) (UniProt Q6VVB1).
T1 sequence: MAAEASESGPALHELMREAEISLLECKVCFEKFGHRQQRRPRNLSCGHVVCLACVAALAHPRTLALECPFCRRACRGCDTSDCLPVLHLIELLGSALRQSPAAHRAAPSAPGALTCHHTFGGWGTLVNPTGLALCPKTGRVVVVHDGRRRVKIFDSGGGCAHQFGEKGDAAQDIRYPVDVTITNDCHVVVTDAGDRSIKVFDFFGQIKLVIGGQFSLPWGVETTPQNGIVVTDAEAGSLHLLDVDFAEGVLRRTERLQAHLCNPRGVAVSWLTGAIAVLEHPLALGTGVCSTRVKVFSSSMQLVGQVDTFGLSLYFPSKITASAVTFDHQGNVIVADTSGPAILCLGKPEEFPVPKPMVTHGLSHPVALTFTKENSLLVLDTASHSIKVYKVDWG
The test is described as follows: co-IP.

Results are given in words; binding and its absence hold for the method and conditions named. In cells and extracts the contact can be indirect. Binding calls can cover weak binding; strength is not graded here.

For the substance “glycogen phosphorylase liver isoform (co-expressed in cells) (enzyme)”, the binding result is listed as “binds”.
